{"source": "patent US5147876A", "about": "“2,6-di,2,4,6-, 2,5,6-tri and 2,4,5,6-tetra-substituted pyrimidines, their pharmaceutically acceptable salts, pharmaceutical compositions containing same and their use in the treatment of neurological diseases” (Mitsui Petrochemical Industries, Ltd., priority 1988, dated 1992)", "tested_on": "neuro-2a (mouse neuroblastoma cells)", "experiment": "Action on neuro-2a: proportion of cells containing outgrown neurites", "format": "cell-based", "conditions": "0.03 mM; mean ± S.D.", "procedure": "The effects of the compounds of this invention on neuroblastoma cells were examined by the following method.\nMouse neuro 2a cells in the logarithmic growth period in the Dulbecco's modified Eagle's medium DMEM, containing 100 units/ml of penicillin G sodium and 100 micrograms/ml of streptomycin sulfate]containing 10 % of FCS were seeded in a 48-well plate so that the number of cells was 1,000 cells/well, and cultured for one day in 0.25 ml of the culture fluid in each well in an incubator containing 5 % of carbon dioxide gas in air at 37° C. Then, a 4 % aqueous glutaraldehyde solution in the same amount as a medium (0.25 ml) was added, and the culture fluid was left to stand at room temperature for 2 hours to fix the cells. After washing with water, a 0.05 % aqueous solution of methylene blue was added to stain the cells Under a microscope, the number of cells containing outgrown neurites (cells having at least one neurite with a length of at least two times as large as the long diameter of the cell) was counted visually, and the proportion of these cells in the entire cells was calculated. The well was observed over 5 or more visual fields (at least 2 % of the entire surface area of the well) continuous to the left and right from a mark put at the center of the well, and more than 200 cells was counted. […]", "note": "Where “and” joins values, the source holds several entries; their conditions need not be identical. Identical values can stand only once. At least one read-out could not be matched to a standard name with certainty."}
{"smiles": "CN1C(=O)Cc2cnc(N3CCN(C4c5ccccc5-c5ccccc54)CC3)nc21", "note": "[Compound 3200]", "values": [{"measurement": "Number of cells having neurites with a length at least two times the diameter of each cell/total number of cells", "value": "3.6 ± 0.5% and 2.5 ± 2.3%"}]}
